We go through 36 targets from the supplement of paper PMC12819154, “High-throughput peptide-centric local stability assay extends protein–ligand identification to membrane proteins, tissues and bacteria” (Nature Structural & Molecular Biology, 2025).

Protein sequences, listed by entry. Tags and fused reporters are not part of them. Lines headed by an entry give the natural chain unless they say otherwise; changes in a name come on top.
UniProt Q8BGG7, whole entry: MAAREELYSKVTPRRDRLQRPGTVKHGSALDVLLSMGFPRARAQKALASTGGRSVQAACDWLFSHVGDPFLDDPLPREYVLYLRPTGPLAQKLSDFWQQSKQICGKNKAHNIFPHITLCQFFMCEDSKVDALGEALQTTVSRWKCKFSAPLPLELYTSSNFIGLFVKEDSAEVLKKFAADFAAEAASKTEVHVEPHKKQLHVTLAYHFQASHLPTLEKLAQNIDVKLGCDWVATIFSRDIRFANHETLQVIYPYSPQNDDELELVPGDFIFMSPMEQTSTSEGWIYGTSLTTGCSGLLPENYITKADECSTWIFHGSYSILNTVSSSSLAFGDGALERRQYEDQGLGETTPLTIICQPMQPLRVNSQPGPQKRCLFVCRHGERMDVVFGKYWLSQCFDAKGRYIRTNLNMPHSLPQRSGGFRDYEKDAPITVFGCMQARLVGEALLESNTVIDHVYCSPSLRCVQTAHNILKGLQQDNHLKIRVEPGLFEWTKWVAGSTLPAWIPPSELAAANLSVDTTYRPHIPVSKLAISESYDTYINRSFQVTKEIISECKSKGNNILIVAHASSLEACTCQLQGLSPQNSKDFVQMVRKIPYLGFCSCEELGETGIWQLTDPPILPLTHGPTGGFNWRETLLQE
UniProt Q8BH16: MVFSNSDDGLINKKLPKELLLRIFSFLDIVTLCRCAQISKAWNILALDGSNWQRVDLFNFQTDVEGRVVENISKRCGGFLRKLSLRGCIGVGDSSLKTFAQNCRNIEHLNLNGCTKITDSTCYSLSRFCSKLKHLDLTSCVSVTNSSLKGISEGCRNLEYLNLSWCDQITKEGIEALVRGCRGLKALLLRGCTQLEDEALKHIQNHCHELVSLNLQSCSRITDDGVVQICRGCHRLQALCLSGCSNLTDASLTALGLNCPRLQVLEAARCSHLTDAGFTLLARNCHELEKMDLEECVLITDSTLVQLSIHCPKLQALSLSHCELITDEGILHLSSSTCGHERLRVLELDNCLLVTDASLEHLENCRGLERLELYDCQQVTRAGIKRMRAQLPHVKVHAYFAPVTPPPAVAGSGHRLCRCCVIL
UniProt Q80VL1: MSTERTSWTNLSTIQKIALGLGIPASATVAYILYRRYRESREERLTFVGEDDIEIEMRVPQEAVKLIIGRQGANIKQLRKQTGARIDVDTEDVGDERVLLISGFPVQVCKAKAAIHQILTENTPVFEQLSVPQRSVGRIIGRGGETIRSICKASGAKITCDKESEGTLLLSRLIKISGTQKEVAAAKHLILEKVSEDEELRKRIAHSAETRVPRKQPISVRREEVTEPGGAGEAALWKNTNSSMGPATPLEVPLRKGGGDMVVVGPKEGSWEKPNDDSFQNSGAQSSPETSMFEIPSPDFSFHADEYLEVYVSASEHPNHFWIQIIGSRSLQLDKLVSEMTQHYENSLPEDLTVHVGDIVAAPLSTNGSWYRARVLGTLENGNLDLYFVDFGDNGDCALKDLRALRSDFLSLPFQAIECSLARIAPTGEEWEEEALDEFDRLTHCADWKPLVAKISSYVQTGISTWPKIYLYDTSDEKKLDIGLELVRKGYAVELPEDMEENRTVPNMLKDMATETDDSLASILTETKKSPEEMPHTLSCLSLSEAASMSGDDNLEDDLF
UniProt Q8BGX0: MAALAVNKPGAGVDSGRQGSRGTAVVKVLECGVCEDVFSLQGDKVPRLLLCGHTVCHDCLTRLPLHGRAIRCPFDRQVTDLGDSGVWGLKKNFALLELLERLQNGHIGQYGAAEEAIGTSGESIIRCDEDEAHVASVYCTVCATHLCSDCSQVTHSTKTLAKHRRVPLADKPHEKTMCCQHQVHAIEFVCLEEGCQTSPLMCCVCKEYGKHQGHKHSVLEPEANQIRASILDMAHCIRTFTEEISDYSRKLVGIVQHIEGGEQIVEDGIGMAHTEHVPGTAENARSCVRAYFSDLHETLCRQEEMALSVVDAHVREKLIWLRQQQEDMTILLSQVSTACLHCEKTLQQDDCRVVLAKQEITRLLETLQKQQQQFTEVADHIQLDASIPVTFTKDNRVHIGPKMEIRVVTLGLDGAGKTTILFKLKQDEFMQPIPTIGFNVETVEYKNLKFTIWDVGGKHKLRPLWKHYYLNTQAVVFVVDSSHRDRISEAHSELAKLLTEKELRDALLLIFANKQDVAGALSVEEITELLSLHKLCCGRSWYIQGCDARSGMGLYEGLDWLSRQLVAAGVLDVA
UniProt Q80YR4: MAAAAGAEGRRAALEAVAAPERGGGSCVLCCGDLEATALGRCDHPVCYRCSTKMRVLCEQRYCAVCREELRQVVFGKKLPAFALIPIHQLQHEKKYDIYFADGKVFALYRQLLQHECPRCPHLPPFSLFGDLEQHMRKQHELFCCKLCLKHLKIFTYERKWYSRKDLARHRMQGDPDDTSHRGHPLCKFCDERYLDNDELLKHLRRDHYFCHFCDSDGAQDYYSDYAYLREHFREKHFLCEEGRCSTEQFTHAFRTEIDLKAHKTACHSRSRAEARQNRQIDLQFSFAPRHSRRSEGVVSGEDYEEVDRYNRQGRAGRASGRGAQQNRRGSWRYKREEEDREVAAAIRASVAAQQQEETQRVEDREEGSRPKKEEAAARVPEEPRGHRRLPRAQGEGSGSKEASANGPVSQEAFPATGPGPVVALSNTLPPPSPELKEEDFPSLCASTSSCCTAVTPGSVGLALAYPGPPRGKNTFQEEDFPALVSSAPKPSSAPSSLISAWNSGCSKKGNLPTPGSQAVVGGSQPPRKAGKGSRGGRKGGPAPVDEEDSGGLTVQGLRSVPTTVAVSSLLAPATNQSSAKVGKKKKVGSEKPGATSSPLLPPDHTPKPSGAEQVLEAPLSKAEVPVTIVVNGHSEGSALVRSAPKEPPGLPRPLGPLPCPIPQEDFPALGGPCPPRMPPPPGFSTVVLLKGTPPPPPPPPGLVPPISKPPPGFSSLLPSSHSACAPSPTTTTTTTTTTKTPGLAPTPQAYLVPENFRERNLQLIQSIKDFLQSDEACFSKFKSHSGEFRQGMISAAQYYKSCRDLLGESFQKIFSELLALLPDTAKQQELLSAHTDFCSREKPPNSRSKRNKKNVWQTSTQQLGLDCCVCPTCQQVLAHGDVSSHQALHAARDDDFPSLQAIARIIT
UniProt Q8BHL3: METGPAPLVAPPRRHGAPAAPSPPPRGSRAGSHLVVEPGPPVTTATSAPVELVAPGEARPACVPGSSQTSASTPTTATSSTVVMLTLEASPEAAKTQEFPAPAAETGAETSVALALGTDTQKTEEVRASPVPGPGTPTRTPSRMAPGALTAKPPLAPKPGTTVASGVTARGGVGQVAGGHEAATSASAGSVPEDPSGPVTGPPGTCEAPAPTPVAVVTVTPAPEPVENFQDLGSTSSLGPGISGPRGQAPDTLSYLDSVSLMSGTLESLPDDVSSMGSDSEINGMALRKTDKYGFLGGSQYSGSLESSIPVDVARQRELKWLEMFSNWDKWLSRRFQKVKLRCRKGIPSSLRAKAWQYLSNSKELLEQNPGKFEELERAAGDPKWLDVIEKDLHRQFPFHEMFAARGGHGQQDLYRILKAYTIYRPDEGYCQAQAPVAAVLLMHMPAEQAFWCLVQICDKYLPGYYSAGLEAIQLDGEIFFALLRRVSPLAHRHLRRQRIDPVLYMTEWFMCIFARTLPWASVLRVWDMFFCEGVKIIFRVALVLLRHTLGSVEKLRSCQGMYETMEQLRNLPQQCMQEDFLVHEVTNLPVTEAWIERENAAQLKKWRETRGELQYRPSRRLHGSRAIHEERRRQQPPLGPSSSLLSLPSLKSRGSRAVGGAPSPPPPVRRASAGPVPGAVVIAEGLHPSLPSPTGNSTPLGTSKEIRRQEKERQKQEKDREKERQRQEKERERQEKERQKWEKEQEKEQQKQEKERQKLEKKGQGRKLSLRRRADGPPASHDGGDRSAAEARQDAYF
UniProt Q8BH69: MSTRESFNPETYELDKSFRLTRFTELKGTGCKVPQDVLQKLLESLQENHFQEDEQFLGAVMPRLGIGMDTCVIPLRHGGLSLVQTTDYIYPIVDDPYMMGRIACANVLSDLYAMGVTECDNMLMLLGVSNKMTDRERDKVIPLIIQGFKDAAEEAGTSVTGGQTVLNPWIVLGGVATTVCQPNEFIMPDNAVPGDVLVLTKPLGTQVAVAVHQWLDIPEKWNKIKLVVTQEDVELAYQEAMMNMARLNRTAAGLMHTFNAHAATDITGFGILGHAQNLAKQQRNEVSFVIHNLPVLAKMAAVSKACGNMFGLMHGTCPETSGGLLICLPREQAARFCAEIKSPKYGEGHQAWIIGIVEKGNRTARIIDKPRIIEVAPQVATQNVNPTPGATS
UniProt Q8BH73: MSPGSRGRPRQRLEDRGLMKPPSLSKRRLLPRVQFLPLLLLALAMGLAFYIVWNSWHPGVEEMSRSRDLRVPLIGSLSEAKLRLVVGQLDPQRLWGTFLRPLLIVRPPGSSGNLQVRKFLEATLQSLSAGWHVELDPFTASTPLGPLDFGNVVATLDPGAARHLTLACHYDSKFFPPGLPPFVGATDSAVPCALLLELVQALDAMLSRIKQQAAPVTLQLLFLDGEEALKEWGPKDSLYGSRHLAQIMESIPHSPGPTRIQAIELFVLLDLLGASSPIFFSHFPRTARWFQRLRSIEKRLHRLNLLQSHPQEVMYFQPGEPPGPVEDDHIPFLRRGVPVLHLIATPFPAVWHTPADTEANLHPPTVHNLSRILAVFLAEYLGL
UniProt Q8BGW5: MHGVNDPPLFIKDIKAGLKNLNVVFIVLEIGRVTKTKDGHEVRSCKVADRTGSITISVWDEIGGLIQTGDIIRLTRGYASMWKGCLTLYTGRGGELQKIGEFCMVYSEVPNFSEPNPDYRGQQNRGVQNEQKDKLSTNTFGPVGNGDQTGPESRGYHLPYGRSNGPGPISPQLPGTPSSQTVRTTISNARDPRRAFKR
UniProt Q80ZS3: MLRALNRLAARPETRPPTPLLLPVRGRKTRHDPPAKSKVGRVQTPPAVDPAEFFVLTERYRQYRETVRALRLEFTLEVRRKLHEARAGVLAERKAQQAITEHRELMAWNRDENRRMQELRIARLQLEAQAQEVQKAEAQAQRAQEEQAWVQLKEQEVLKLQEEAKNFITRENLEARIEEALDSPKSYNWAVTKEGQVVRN
UniProt Q80X41: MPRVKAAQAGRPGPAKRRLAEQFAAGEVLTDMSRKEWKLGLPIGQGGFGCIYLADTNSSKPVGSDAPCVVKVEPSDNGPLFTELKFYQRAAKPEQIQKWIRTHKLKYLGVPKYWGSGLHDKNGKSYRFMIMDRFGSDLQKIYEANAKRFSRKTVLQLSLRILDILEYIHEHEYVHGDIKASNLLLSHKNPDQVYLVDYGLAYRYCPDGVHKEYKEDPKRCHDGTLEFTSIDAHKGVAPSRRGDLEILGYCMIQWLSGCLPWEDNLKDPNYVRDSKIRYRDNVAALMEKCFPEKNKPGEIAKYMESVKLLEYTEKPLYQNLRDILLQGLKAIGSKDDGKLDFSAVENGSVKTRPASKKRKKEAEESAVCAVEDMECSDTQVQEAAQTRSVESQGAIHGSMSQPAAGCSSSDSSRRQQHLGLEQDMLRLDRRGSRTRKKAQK
UniProt Q80YV2: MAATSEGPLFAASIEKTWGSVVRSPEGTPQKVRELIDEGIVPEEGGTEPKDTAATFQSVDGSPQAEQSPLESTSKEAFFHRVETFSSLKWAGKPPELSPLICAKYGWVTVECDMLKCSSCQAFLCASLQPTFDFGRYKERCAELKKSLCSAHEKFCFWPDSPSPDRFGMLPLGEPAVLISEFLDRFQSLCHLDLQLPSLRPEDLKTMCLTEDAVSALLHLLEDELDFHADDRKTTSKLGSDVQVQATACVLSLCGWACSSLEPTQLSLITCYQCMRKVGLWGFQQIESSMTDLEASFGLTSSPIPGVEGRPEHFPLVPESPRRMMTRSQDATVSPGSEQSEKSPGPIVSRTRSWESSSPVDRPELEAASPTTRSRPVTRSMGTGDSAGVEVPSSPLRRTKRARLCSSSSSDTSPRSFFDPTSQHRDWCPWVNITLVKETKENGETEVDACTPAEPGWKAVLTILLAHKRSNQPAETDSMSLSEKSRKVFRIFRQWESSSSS
UniProt Q8BG17: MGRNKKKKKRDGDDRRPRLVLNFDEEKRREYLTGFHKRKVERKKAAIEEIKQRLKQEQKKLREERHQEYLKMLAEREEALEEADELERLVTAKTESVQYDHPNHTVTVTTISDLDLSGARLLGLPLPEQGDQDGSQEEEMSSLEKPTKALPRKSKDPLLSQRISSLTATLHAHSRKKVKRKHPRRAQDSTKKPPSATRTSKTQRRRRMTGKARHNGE
UniProt Q80WR5: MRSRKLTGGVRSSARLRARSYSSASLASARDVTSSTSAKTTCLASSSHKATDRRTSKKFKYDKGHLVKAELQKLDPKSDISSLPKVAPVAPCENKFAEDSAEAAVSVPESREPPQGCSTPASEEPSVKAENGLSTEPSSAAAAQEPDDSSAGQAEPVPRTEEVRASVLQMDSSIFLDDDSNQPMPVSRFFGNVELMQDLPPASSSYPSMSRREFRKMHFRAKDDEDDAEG

The list shows a part of the results. Most entries show no effect beyond the scatter of the controls.

Compound in this test: CN[C@@H]1C[C@H]2O[C@@](C)([C@@H]1OC)n1c3ccccc3c3c4c(c5c6ccccc6n2c5c31)C(=O)NC4 [staurosporine]
Briefly: log2 fold change of tryptic peptide abundance, ligand vs vehicle (limited proteolysis) (log2 ratio); higher = more trypsin-susceptible (destabilized). To be noted: ligand concentration: 20 uM; sample: mouse liver crude lysate; replicate design: treated separately.
With “UniProt Q8BG51 (peptide sequence: HSIDKVTSR, peptide start residue: 101)”, the log2 fold change stood at 0.355. The figure for “UniProt Q8BGD6 (peptide sequence: VSDHAAAMNKR, peptide start residue: 56)” is -0.248. For the target “UniProt Q811B5 (peptide sequence: DSPQMMEDK, peptide start residue: 149)”, the log2 fold change worked out at 0.136. As to “UniProt Q80VY9 (peptide sequence: KYSCVILDEAHER, peptide start residue: 178)”, the log2 fold change is -0.396. For “UniProt Q8BG95 (peptide sequence: SYLTPVRDEEAESLRK, peptide start residue: 617)”, the log2 fold change is 0.493. With “UniProt Q80XE1 (peptide sequence: ERVDSLLK, peptide start residue: 434)”, the log2 fold change was 0.111. In the case of “UniProt Q811I0 (peptide sequence: QSDFIKCMEQK, peptide start residue: 111)”, the log2 fold change amounted to 0.189.

For the target “UniProt Q80ZU0 (peptide sequence: ISVTREELYK, peptide start residue: 99)”, the log2 fold change was -0.215. On to “UniProt Q810A3 (peptide sequence: VREYSQK, peptide start residue: 93)”, for which the log2 fold change was -0.567. For “UniProt Q8BGG7 (peptide sequence: LQRPGTVK, peptide start residue: 18)” the value was -0.187; for “UniProt Q8BH16 (peptide sequence: TFAQNCR, peptide start residue: 111)”, -0.121; for “UniProt Q8BH86 (peptide sequence: AADGNYYNAR, peptide start residue: 441)”, 0.0965. For “UniProt Q80VL1 (peptide sequence: REEVTEPGGAGEAALWK, peptide start residue: 222)” the value was -0.216; for “UniProt Q8BHN0 (peptide sequence: VQGILAMSR, peptide start residue: 257)”, 0.146; for “UniProt Q8BGX0 (peptide sequence: FTIWDVGGK, peptide start residue: 450)”, -0.0308. Turning to “UniProt Q80YR4 (peptide sequence: AEVPVTIVVNGHSEGSALVR, peptide start residue: 623)”, the log2 fold change amounted to 0.415. As for “UniProt Q8BH05 (peptide sequence: HLNTSPSTYDHYR, peptide start residue: 286)”, the log2 fold change was -0.634. Regarding “UniProt Q8BHL3 (peptide sequence: AVGGAPSPPPPVR, peptide start residue: 658)”, the log2 fold change turned out to be 0.285. For the target “UniProt Q8BG94 (peptide sequence: GRLHCTQDPVPEAVR, peptide start residue: 2)”, the log2 fold change is -0.526. The figure for “UniProt Q8BGG9 (peptide sequence: YTTQYLHNK, peptide start residue: 297)” is 0.143; for “UniProt Q8BGB8 (peptide sequence: LQSLPEGSLGR, peptide start residue: 116)” it is -0.195. For the target “UniProt Q8BH69 (peptide sequence: YGEGHQAWIIGIVEK, peptide start residue: 345)”, the log2 fold change is -0.293. Regarding “UniProt Q80YD1 (peptide sequence: NDIYSVSR, peptide start residue: 376)”, the log2 fold change was -0.202. Consider “UniProt Q80WP8 (peptide sequence: ADSVAWNPHK, peptide start residue: 296)”, for which the log2 fold change amounted to 0.171. For the target “UniProt Q8BH73 (peptide sequence: GLMKPPSLSK, peptide start residue: 17)”, the log2 fold change came out at 0.0241. Regarding “UniProt Q8BGW5 (peptide sequence: GCLTLYTGR, peptide start residue: 84)”, the log2 fold change was -0.105.

“UniProt Q80ZS3 (peptide sequence: ENLEARIEEALDSPKSYNWAVTK, peptide start residue: 171)”: the log2 fold change was determined as 0.547. The figure for “UniProt Q80X41 (peptide sequence: RQQHLGLEQDMLR, peptide start residue: 414)” is 0.421. For the target “UniProt Q80YV2 (peptide sequence: WAGKPPELSPLICAK, peptide start residue: 90)”, the log2 fold change worked out at 0.143. “UniProt Q8BG17 (peptide sequence: EYLTGFHKR, peptide start residue: 30)”: the log2 fold change was 0.328. With “UniProt Q8BG05 (peptide sequence: KIFVGGIKEDTEEYNLR, peptide start residue: 127)”, the log2 fold change came out at 0.179.

In the case of “UniProt Q8BG60 (peptide sequence: HTYLANGQTK, peptide start residue: 220)”, the log2 fold change is -0.291. As to “UniProt Q80ZK0 (peptide sequence: DVTRPTITTSDEPDTLYKR, peptide start residue: 16)”, the log2 fold change is -0.191. As for “UniProt Q80WR5 (peptide sequence: VAPVAPCENK, peptide start residue: 86)”, the log2 fold change is -0.0506.

In the case of “UniProt Q8BGT5 (peptide sequence: GGYMEVINLHPEIK, peptide start residue: 350)”, the log2 fold change is -0.452. The figure for “UniProt Q80W21 (peptide sequence: LCYNADFEK, peptide start residue: 114)” is -0.466.
